The list shows a part of the results.
Experiments:
Experiment in all cases: glycan array binding signal (z-score within array); higher = stronger binding
Settings in all cases: glycan notation: IUPAC condensed, linker removed
[1] = target: Neu5Ac(a2-3)Gal(b1-3)GlcNAc(b1-2)Man(a1-3)[GlcNAc(b1-4)][Neu5Ac(a2-3)Gal(b1-3)GlcNAc(b1-2)Man(a1-6)]Man(b1-4)GlcNAc(b1-4)GlcNAc
In short: (§1)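 Columns mapping to the same glycan were averaged after glycan names were converted to IUPAC-condensed notation. The data come from 3228 arrays in the Consortium for Functional Glycomics database, limited to those with an available protein sequence. Binding is reported as a within-array Z-score averaged across arrays of one protein sequence and across linkers.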

[2] = target: Neu5Ac(a2-3)Gal(b1-3)GlcNAc(b1-2)Man(a1-3)[Neu5Ac(a2-3)Gal(b1-3)GlcNAc(b1-2)Man(a1-6)]Man(b1-4)GlcNAc(b1-4)GlcNAc
In short: as §1

[3] = target: Neu5Ac(a2-3)Gal(b1-3)GlcNAc(b1-3)Gal(b1-3)GlcNAc
In short: as §1

[4] = target: Neu5Ac(a2-3)Gal(b1-3)GlcNAc(b1-3)Gal(b1-4)GlcNAc
In short: as §1

[5] = target: Neu5Ac(a2-3)Gal(b1-3)GlcNAc(b1-3)GalNAc
In short: as §1

[6] = target: Neu5Ac(a2-3)Gal(b1-3)GlcNAc(b1-4)Gal(b1-4)Glc
In short: as §1

[7] = target: Neu5Ac(a2-3)Gal(b1-3)GlcNAc(b1-6)GalNAc
In short: as §1

[8] = target: Neu5Ac(a2-3)Gal(b1-3)GlcNAc6S
In short: as §1

[9] = target: Neu5Ac(a2-3)Gal(b1-3)[Fuc(a1-4)]GlcNAc
In short: as §1

[10] = target: Neu5Ac(a2-3)Gal(b1-3)[Fuc(a1-4)]GlcNAc(b1-3)Gal(b1-3)[Fuc(a1-4)]GlcNAc
In short: as §1

[11] = target: Neu5Ac(a2-3)Gal(b1-3)[Fuc(a1-4)]GlcNAc(b1-3)Gal(b1-4)[Fuc(a1-3)]GlcNAc
In short: as §1

[12] = target: Neu5Ac(a2-3)Gal(b1-3)[GlcNAc(b1-6)]GalNAc
In short: as §1

[13] = target: Neu5Ac(a2-3)Gal(b1-3)[Neu5Ac(a2-6)]GalNAc
In short: as §1

[14] = target: Neu5Ac(a2-3)Gal(b1-3)[Neu5Ac(a2-6)]GlcNAc(b1-3)[Fuc(a1-3)[Gal(b1-4)]GlcNAc(b1-6)]Gal(b1-4)Glc
In short: as §1

[15] = target: Neu5Ac(a2-3)Gal(b1-3)]Neu5Ac(a2-3)Gal(b1-4)]GlcNAc
In short: as §1

Neu5Ac(a2-3)Gal(b1-4)Glc = target: Neu5Ac(a2-3)Gal(b1-4)Glc
In short: as §1

[16] = target: Neu5Ac(a2-3)Gal(b1-4)GlcNAc
In short: as §1

[17] = target: Neu5Ac(a2-3)Gal(b1-4)GlcNAc(b1-2)Man
In short: as §1

[18] = target: Neu5Ac(a2-3)Gal(b1-4)GlcNAc(b1-2)Man(a1-3)[GlcNAc(b1-4)][Neu5Ac(a2-3)Gal(b1-4)GlcNAc(b1-2)Man(a1-6)]Man(b1-4)GlcNAc(b1-4)GlcNAc
In short: as §1

[19] = target: Neu5Ac(a2-3)Gal(b1-4)GlcNAc(b1-2)Man(a1-3)[Neu5Ac(a2-3)Gal(b1-4)GlcNAc(b1-2)Man(a1-6)]Man(b1-4)GlcNAc(b1-4)GlcNAc
In short: as §1

[20] = target: Neu5Ac(a2-3)Gal(b1-4)GlcNAc(b1-2)Man(a1-3)[Neu5Ac(a2-3)Gal(b1-4)GlcNAc(b1-2)Man(a1-6)]Man(b1-4)GlcNAc(b1-4)[Fuc(a1-6)]GlcNAc
In short: as §1

[21] = target: Neu5Ac(a2-3)Gal(b1-4)GlcNAc(b1-2)Man(a1-3)[Neu5Ac(a2-6)Gal(b1-4)GlcNAc(b1-2)Man(a1-6)]Man(b1-4)GlcNAc(b1-4)GlcNAc
In short: as §1

[22] = target: Neu5Ac(a2-3)Gal(b1-4)GlcNAc(b1-2)[Neu5Ac(a2-3)Gal(b1-4)GlcNAc(b1-4)]Man(a1-3)[GlcNAc(b1-4)][Neu5Ac(a2-3)Gal(b1-4)GlcNAc(b1-2)[Neu5Ac(a2-3)Gal(b1-4)GlcNAc(b1-6)]Man(a1-6)]Man(b1-4)GlcNAc(b1-4)GlcNAc
In short: as §1

[23] = target: Neu5Ac(a2-3)Gal(b1-4)GlcNAc(b1-2)[Neu5Ac(a2-3)Gal(b1-4)GlcNAc(b1-4)]Man(a1-3)[GlcNAc(b1-4)][Neu5Ac(a2-3)Gal(b1-4)GlcNAc(b1-4)Man(a1-6)]Man(b1-4)GlcNAc(b1-4)GlcNAc
In short: as §1

[24] = target: Neu5Ac(a2-3)Gal(b1-4)GlcNAc(b1-2)[Neu5Ac(a2-3)Gal(b1-4)GlcNAc(b1-6)]Man(a1-6)[Neu5Ac(a2-3)Gal(b1-4)GlcNAc(b1-2)Man(a1-3)]Man(b1-4)GlcNAc(b1-4)GlcNAc
In short: as §1

[25] = target: Neu5Ac(a2-3)Gal(b1-4)GlcNAc(b1-2)[Neu5Ac(a2-3)Gal(b1-4)GlcNAc(b1-6)]Man(a1-6)[Neu5Ac(a2-3)Gal(b1-4)GlcNAc(b1-2)Man(a1-3)][GlcNAc(b1-4)]Man(b1-4)GlcNAc(b1-4)GlcNAc
In short: as §1

[26] = target: Neu5Ac(a2-3)Gal(b1-4)GlcNAc(b1-3)Gal
In short: as §1

[27] = target: Neu5Ac(a2-3)Gal(b1-4)GlcNAc(b1-3)Gal(b1-3)GlcNAc
In short: as §1

[28] = target: Neu5Ac(a2-3)Gal(b1-4)GlcNAc(b1-3)Gal(b1-4)GlcNAc
In short: as §1

[29] = target: Neu5Ac(a2-3)Gal(b1-4)GlcNAc(b1-3)Gal(b1-4)GlcNAc(b1-2)Man(a1-3)[Neu5Ac(a2-3)Gal(b1-4)GlcNAc(b1-3)Gal(b1-4)GlcNAc(b1-2)Man(a1-6)]Man(b1-4)GlcNAc(b1-4)GlcNAc
In short: as §1

[30] = target: Neu5Ac(a2-3)Gal(b1-4)GlcNAc(b1-3)Gal(b1-4)GlcNAc(b1-3)Gal(b1-4)GlcNAc
In short: as §1

[31] = target: Neu5Ac(a2-3)Gal(b1-4)GlcNAc(b1-3)Gal(b1-4)GlcNAc(b1-3)Gal(b1-4)GlcNAc(b1-2)Man(a1-3)[Neu5Ac(a2-3)Gal(b1-4)GlcNAc(b1-3)Gal(b1-4)GlcNAc(b1-3)Gal(b1-4)GlcNAc(b1-2)Man(a1-6)]GalNAc
In short: as §1

[32] = target: Neu5Ac(a2-3)Gal(b1-4)GlcNAc(b1-3)Gal(b1-4)GlcNAc(b1-3)GalNAc
In short: as §1

[33] = target: Neu5Ac(a2-3)Gal(b1-4)GlcNAc(b1-3)Gal(b1-4)GlcNAc(b1-3)[Neu5Ac(a2-3)Gal(b1-4)GlcNAc(b1-3)Gal(b1-4)GlcNAc(b1-6)]GalNAc
In short: as §1

[34] = target: Neu5Ac(a2-3)Gal(b1-4)GlcNAc(b1-3)Gal(b1-4)GlcNAc(b1-6)[Gal(b1-3)]GalNAc
In short: as §1

[35] = target: Neu5Ac(a2-3)Gal(b1-4)GlcNAc(b1-3)Gal(b1-4)[Fuc(a1-3)]GlcNAc
In short: as §1

[36] = target: Neu5Ac(a2-3)Gal(b1-4)GlcNAc(b1-3)GalNAc
In short: as §1

[37] = target: Neu5Ac(a2-3)Gal(b1-4)GlcNAc(b1-3)[Neu5Ac(a2-3)Gal(b1-4)GlcNAc(b1-6)]GalNAc
In short: as §1

B1: PX9961KLbvu-535-38-535 (Bacteroides vulgatus) (protein)
chain: DKAYTDAESYTKGLHKIYSVWALSGQDGSSSSDISGLDAGNTALLRCWWTLQEQPTDEMKNAWNDAWCTEVNYMTWTTNKVEPIEGVYQRCMYIVALVNEFLKNIPNAPESIDKESYIAQARFNRAFAYYVLMDMFALPPFITEKNYSIEPAPLSREDLFNWIEAELNEIKPNLPSPRSEYGVADQAVASALLARMYLNAEIYTGKARYTECINACNEVIKAGYQLADNYADLFKADNGENPDTKKEIIYPIIFDGDKTQSWGMAAIIIGARGAEDKDVLLAHSGVDQGWAGFRATSNLVHLFDFQNDEEPKASEIQDKRGIFYDKGRSIDITSSVSGTFETEGWSVFKFSNLNSNGQPGKNTLWVDTDFPMFRLGDIYLMYAEAVARGGEGSKASAVEYINALRKRAYGDDKHNISENWLEENNFRNLLDERGRELYWEGIRRTDLVRFDLLTSGSYTWDFKGGINTGVGVNKRYNVYPIPVTDLTVNGNLQQNEGY
glycan array binding signal (z-score) [1]: -0.83 | glycan array binding signal (z-score) [2]: -0.083 | glycan array binding signal (z-score) [3]: -0.677 | glycan array binding signal (z-score) [4]: 0.054 | glycan array binding signal (z-score) [5]: -0.512 | glycan array binding signal (z-score) [6]: -0.755 | glycan array binding signal (z-score) [7]: 0.328 | glycan array binding signal (z-score) [8]: -0.604 | glycan array binding signal (z-score) [9]: 1.01 | glycan array binding signal (z-score) [10]: 0.17 | glycan array binding signal (z-score) [11]: -0.139 | glycan array binding signal (z-score) [12]: -0.101 | glycan array binding signal (z-score) [13]: -0.184 | glycan array binding signal (z-score) [14]: -0.377 | glycan array binding signal (z-score) [15]: -0.578 | glycan array binding signal (z-score) (Neu5Ac(a2-3)Gal(b1-4)Glc): -0.637 | glycan array binding signal (z-score) [16]: -0.139 | glycan array binding signal (z-score) [17]: -0.477 | glycan array binding signal (z-score) [18]: -0.451 | glycan array binding signal (z-score) [19]: 0.024 | glycan array binding signal (z-score) [20]: 0.475 | glycan array binding signal (z-score) [21]: -0.154 | glycan array binding signal (z-score) [22]: -0.599 | glycan array binding signal (z-score) [23]: 0.424 | glycan array binding signal (z-score) [24]: 0.865 | glycan array binding signal (z-score) [25]: -0.043 | glycan array binding signal (z-score) [26]: -0.839 | glycan array binding signal (z-score) [27]: -0.662 | glycan array binding signal (z-score) [28]: -0.635 | glycan array binding signal (z-score) [29]: 0.428 | glycan array binding signal (z-score) [30]: -0.106 | glycan array binding signal (z-score) [31]: 1.01 | glycan array binding signal (z-score) [32]: -0.387 | glycan array binding signal (z-score) [33]: 0.429 | glycan array binding signal (z-score) [34]: -0.413 | glycan array binding signal (z-score) [35]: -0.754 | glycan array binding signal (z-score) [36]: -0.307 | glycan array binding signal (z-score) [37]: -1.09

Reference: the supplement of paper PMC8728848
